Values from PubChem BioAssay AID686938 (Drosophila RNAi Screening Center, 2013).
Purpose: 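Fly genes required for calcium entry once internal stores are emptied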 (primary screen). Cell system: Drosophila S2R+ cells. Reagent: long dsRNA against Drosophila genes, about 0.25 µg dsRNA per well, roughly 10,000 cells. Duration: 5 days of knock-down before the calcium assay. Conditions: thapsigargin (SERCA pump blocker) to empty calcium stores; entry signal taken 4 min after adding it. Detection: 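Duplicate raw fluo-4 intensities per well from a plate reader, at rest and four minutes after thapsigargin emptied calcium stores; entry-to-rest ratio filled for only some wells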. Reading the numbers: calcium entry signal: higher = stronger calcium signal after store depletion; resting calcium signal: higher = higher resting calcium signal. Call rule: 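Called when the plate z-score of the entry-to-rest ratio, mean of duplicates, falls below −3; wells with low overall dye signal (Fmax z below −2) or more than five off-targets excluded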. Meaning of the calls: active = strongly reduced calcium entry; inactive = no strong reduction.
In all, the deposit lists about 23,000 reagents; shown is an unselected part of those with a known target gene and a result. Over the whole deposit, 75 (0.33%) are marked active. 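Raw plate signals without normalisation; calls rest on plate z-scores that were not deposited; ratio present for only 364 wells.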 Entries without a mark were called inactive. Not stated in the record: the dose of the treatment.

| target gene | dsRNA | calcium entry signal, replicate 1 (fluorescence units) | calcium entry signal, replicate 2 (fluorescence units) | resting calcium signal, replicate 1 (fluorescence units) | resting calcium signal, replicate 2 (fluorescence units) |
| --- | --- | --- | --- | --- | --- |
| cnc (cap-n-collar) | DRSC14676 | 3.72e7 | 5.01e7 | 2.02e7 | 1.92e7 |
| cnc (cap-n-collar) | DRSC15289 | 4.10e7 | 3.66e7 | 2.01e7 | 1.81e7 |
| cnc (cap-n-collar) | DRSC15600 | 4.31e7 | 5.52e7 | 2.22e7 | 2.30e7 |
| cnc (cap-n-collar) | DRSC15601 | 3.69e7 | 5.96e7 | 1.89e7 | 2.44e7 |
| CG14207 | DRSC19562 | 2.78e7 | 3.18e7 | 1.41e7 | 1.37e7 |
| CG14207 | DRSC19563 | 3.96e7 | 4.03e7 | 2.09e7 | 1.82e7 |
| CG14668 | DRSC12254 | 2.95e7 | 2.50e7 | 1.51e7 | 1.35e7 |
| CG13102 | DRSC02202 | 3.69e7 | 5.27e7 | 1.74e7 | 2.30e7 |
| Klp31E (Kinesin-like protein at 31E) | DRSC03354 | 4.38e7 | – | 2.45e7 | – |
| tnc (tenectin) | DRSC14647 | 4.49e7 | 5.94e7 | 2.04e7 | 2.44e7 |
| Stim (Stromal interaction molecule) | DRSC20158 | 2.19e7 (active) | 1.87e7 | 1.78e7 | 1.45e7 |

Reformatted: results already given
target gene,dsRNA,"calcium entry signal, replicate 1 (fluorescence units)","calcium entry signal, replicate 2 (fluorescence units)","resting calcium signal, replicate 1 (fluorescence units)","resting calcium signal, replicate 2 (fluorescence units)"
cnc (cap-n-collar),DRSC14676,3.72e7,5.01e7,2.02e7,1.92e7
cnc (cap-n-collar),DRSC15289,4.10e7,3.66e7,2.01e7,1.81e7

The results go on.
| target gene | dsRNA | calcium entry signal, replicate 1 (fluorescence units) | calcium entry signal, replicate 2 (fluorescence units) | resting calcium signal, replicate 1 (fluorescence units) | resting calcium signal, replicate 2 (fluorescence units) |
| --- | --- | --- | --- | --- | --- |
| beg (bad egg) | DRSC10923 | 2.93e7 | 3.89e7 | 1.45e7 | 2.52e7 |
| Mcm3 (Minichromosome maintenance 3) | DRSC18679 | 2.18e7 | 2.61e7 | 1.11e7 | 1.30e7 |
| CG12589 | DRSC12215 | 2.35e7 | 4.99e7 | 1.09e7 | 1.96e7 |
| emc (extra macrochaetae) | DRSC08715 | 3.15e7 | 2.16e7 | 1.55e7 | 1.23e7 |
| emc (extra macrochaetae) | DRSC23238 | 3.00e7 | 3.05e7 | 1.68e7 | 1.42e7 |
| CG30103 | DRSC06894 | 5.45e7 | 5.08e7 | 2.24e7 | 2.15e7 |
| rin (rasputin) | DRSC17045 | 3.85e7 | 6.98e7 | 2.15e7 | 6.69e7 |
| rin (rasputin) | DRSC22997 | 5.48e7 | 4.04e7 | 2.86e7 | 1.72e7 |
| CG6481 | DRSC19995 | 3.91e7 | 3.31e7 | 1.97e7 | 1.53e7 |
| CG1632 | DRSC17558 | 3.21e7 | 3.54e7 | 1.60e7 | 1.71e7 |
| CG1632 | DRSC18110 | 3.52e7 | 5.51e7 | 1.80e7 | 2.47e7 |
| Cht10 (Chitinase 10) | DRSC03766 | 4.59e7 | 4.75e7 | 2.12e7 | 2.02e7 |
| Cht10 (Chitinase 10) | DRSC03767 | 3.55e7 | – | 1.78e7 | – |
| Cht10 (Chitinase 10) | DRSC03768 | 4.16e7 | 5.03e7 | 2.04e7 | 2.15e7 |
